{"sequences": {"note": "By UniProt entry, the sequences of proteins in these tests, tags left out. Where a name states a change or a piece, a line headed by the entry shows the natural chain unless it says otherwise. Residues count along the entry.", "UniProt O00303": "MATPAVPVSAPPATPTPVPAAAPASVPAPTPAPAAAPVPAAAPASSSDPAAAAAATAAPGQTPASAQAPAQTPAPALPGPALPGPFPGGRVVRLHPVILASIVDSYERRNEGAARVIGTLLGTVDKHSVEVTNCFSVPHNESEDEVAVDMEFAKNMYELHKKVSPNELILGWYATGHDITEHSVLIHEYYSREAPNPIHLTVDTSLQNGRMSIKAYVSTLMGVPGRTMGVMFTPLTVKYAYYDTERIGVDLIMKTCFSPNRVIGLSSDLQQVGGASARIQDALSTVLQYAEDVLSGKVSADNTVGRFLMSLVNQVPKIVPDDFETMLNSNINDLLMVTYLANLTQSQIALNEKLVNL", "GST-eIF3f aa1-113 (N-terminal region of eIF3f)": "residues 1-113 of O00303"}, "source": "paper PMC3689047", "molecules": {"B1": {"name": "Myc-tagged hMSH4, full-length (protein, UniProt O15457 1-936)", "chain": "MLRPEISSTSPSAPAVSPSSGETRSPQGPRYNFGLQETPQSRPSVQVVSASTCPGTSGAAGDRSSSSSSLPCPAPNSRPAQGSYFGNKRAYAENTVASNFTFGASSSSARDTNYPQTLKTPLSTGNPQRSGYKSWTPQVGYSASSSSAISAHSPSVIVAVVEGRGLARGEIGMASIDLKNPQIILSQFADNTTYAKVITKLKILSPLEIIMSNTACAVGNSTKLFTLITENFKNVNFTTIQRKYFNETKGLEYIEQLCIAEFSTVLMEVQSKYYCLAAVAALLKYVEFIQNSVYAPKSLKICFQGSEQTAMIDSSSAQNLELLINNQDYRNNHTLFGVLNYTKTPGGSRRLRSNILEPLVDIETINMRLDCVQELLQDEELFFGLQSVISRFLDTEQLLSVLVQIPKQDTVNAAESKITNLIYLKHTLELVDPLKIAMKNCNTPLLRAYYGSLEDKRFGIILEKIKTVINDDARYMKGCLNMRTQKCYAVRSNINEFLDIARRTYTEIVDDIAGMISQLGEKYSLPLRTSFSSARGFFIQMTTDCIALPSDQLPSEFIKISKVKNSYSFTSADLIKMNERCQESLREIYHMTYMIVCKLLSEIYEHIHCLYKLSDTVSMLDMLLSFAHACTLSDYVRPEFTDTLAIKQGWHPILEKISAEKPIANNTYVTEGSNFLIITGPNMSGKSTYLKQIALCQIMAQIGSYVPAEYSSFRIAKQIFTRISTDDDIETNSSTFMKEMKEIAYILHNANDKSLILIDELGRGTNTEEGIGICYAVCEYLLSLKAFTLFATHFLELCHIDALYPNVENMHFEVQHVKNTSRNKEAILYTYKLSKGLTEEKNYGLKAAEVSSLPPSIVLDAKEITTQITRQILQNQRSTPEMERQRAVYHLATRLVQTARNSQLDPDSLRIYLSNLKKKYKEDFPRTEQVPEKTEE"}, "B2": {"name": "recombinant His6-hMSH4 (protein, UniProt O15457 1-936)", "chain": "B1 chain"}}, "key": {"[1]": {"target": "T1, hMSH4 (human MutS homologue 4), full-length, GAL4-BD fusion (human) (UniProt O15457)", "T1 sequence": "B1 chain", "assay": "two-hybrid; pairwise analysis in S. cerevisiae strain AH109; positive interactions by activation of the ADE2 and HIS3 reporter genes"}, "[2]": {"target": "T1, hMSH4 (human MutS homologue 4), full-length, GAL4-BD fusion (human)", "assay": "two-hybrid; library screen: full-length hMSH4 as GAL4-BD bait (pAS2-1) against a human ovary cDNA library in S. cerevisiae strain Y187"}, "[3]": {"target": "Flag-tagged eIF3f (human) (UniProt O00303)", "assay": "co-IP; Myc-tagged hMSH4 or hMSH4sv co-expressed with Flag-eIF3f in 293T cells; IP with anti-Myc or anti-Flag, Protein A/rProtein G-Agarose beads; also in 293T/eIF3f cells with or without 10 Gy IR (lysates 2 hrs post-IR)"}, "[4]": {"target": "GST-eIF3f, full-length (human) (UniProt O00303)", "assay": "pull-down; GST pull-down of recombinant His6-hMSH4 with GST-eIF3f fusion proteins on Glutathione-Sepharose 4B beads"}, "[5]": {"target": "GST-eIF3f aa1-113 (N-terminal region of eIF3f) (human) (UniProt O00303)", "assay": "pull-down; GST pull-down of recombinant His6-hMSH4 with GST-eIF3f fusion proteins on Glutathione-Sepharose 4B beads"}}, "note": "Results are given in words; binding and its absence hold for the method and conditions named. For some assays here: In cells and extracts the contact can be indirect. Some binding calls cover weakened binding; strength is not graded here. Sequences can lack the tags named with a protein."}
{"molecule": "eIF3f (eukaryotic translation initiation factor 3, subunit F), full-length clone from the human ovary cDNA library (from UniProt O00303 1-357)", "values": [{"measurement": "binding", "setting": "[1]", "result": "binds"}, {"measurement": "binding", "setting": "[2]", "result": "binds"}]}
{"molecule": "B1", "values": [{"measurement": "binding", "setting": "[3]", "result": "binds"}]}
{"molecule": "B2", "values": [{"measurement": "binding", "setting": "[4]", "result": "binds"}, {"measurement": "binding", "setting": "[5]", "result": "binds"}]}
